Data taken from the supplement of paper PMC8728848.
The other results are listed elsewhere or left out.

How the values were obtained:
Assay in all cases: glycan array binding signal (z-score within array); higher = stronger binding
Details in all cases: glycan notation: IUPAC condensed, linker removed
Neu5Ac(a2-8)Neu5Ac = target: Neu5Ac(a2-8)Neu5Ac
How it was run: (§1)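 Negative Z-scores can be read as non-binding. The Z-score is calculated within each array and then averaged across arrays of one protein sequence at different concentrations or buffers and across linkers. Arrays, 3228 in all, were curated from the Consortium for Functional Glycomics database and kept only where the protein sequence was available.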

[1] = target: Neu5Ac(a2-8)Neu5Ac(a2-3)Gal(b1-3)GalNAc(b1-4)[Neu5Ac(a2-3)]Gal(b1-4)Glc
How it was run: as §1

[2] = target: Neu5Ac(a2-8)Neu5Ac(a2-3)Gal(b1-3)GalNAc(b1-4)[Neu5Ac(a2-8)Neu5Ac(a2-3)]Gal(b1-4)Glc
How it was run: as §1

[3] = target: Neu5Ac(a2-8)Neu5Ac(a2-3)Gal(b1-4)Glc
How it was run: as §1

[4] = target: Neu5Ac(a2-8)Neu5Ac(a2-3)Gal(b1-4)GlcNAc
How it was run: as §1

[5] = target: Neu5Ac(a2-8)Neu5Ac(a2-3)[Gal(b1-3)GalNAc(b1-4)]Gal(b1-4)Glc
How it was run: as §1

[6] = target: Neu5Ac(a2-8)Neu5Ac(a2-3)[GalNAc(b1-4)]Gal(b1-4)Glc
How it was run: as §1

[7] = target: Neu5Ac(a2-8)Neu5Ac(a2-8)Neu5Ac
How it was run: as §1

[8] = target: Neu5Ac(a2-8)Neu5Ac(a2-8)Neu5Ac(a2-3)Gal(b1-4)Glc
How it was run: as §1

[9] = target: Neu5Ac(a2-8)Neu5Ac(a2-8)Neu5Ac(a2-3)[Gal(b1-3)GalNAc(b1-4)]Gal(b1-4)Glc
How it was run: as §1

[10] = target: Neu5Ac(a2-8)Neu5Ac(a2-8)Neu5Ac(a2-3)[GalNAc(b1-4)]Gal(b1-4)Glc
How it was run: as §1

[11] = target: Neu5Ac(a2-8)Neu5Ac(a2-8)Neu5Ac(a2-8)Neu5Ac(a2-3)[GalNAc(b1-4)]Gal(b1-4)Glc
How it was run: as §1

[12] = target: Neu5Ac(a2-8)Neu5Gc(a2-3)Gal(b1-4)GlcNAc
How it was run: as §1

[13] = target: Neu5Ac(b2-6)Gal(b1-4)GlcNAc
How it was run: as §1

Neu5Ac(b2-6)GalNAc = target: Neu5Ac(b2-6)GalNAc
How it was run: as §1

[14] = target: Neu5Ac9Ac(a2-3)Gal(b1-3)GlcNAc
How it was run: as §1

[15] = target: Neu5Ac9Ac(a2-3)Gal(b1-4)GlcNAc
How it was run: as §1

[16] = target: Neu5Ac9Ac(a2-6)Gal(b1-4)GlcNAc
How it was run: as §1

[17] = target: Neu5Gc(a2-3)Gal(b1-3)GlcNAc
How it was run: as §1

[18] = target: Neu5Gc(a2-3)Gal(b1-3)[Fuc(a1-4)]GlcNAc
How it was run: as §1

Neu5Gc(a2-3)Gal(b1-4)Glc = target: Neu5Gc(a2-3)Gal(b1-4)Glc
How it was run: as §1

[19] = target: Neu5Gc(a2-3)Gal(b1-4)GlcNAc
How it was run: as §1

[20] = target: Neu5Gc(a2-3)Gal(b1-4)GlcNAc(b1-3)Gal(b1-4)GlcNAc(b1-2)Man(a1-3)[Neu5Gc(a2-3)Gal(b1-4)GlcNAc(b1-3)Gal(b1-4)GlcNAc(b1-2)Man(a1-6)]Man(b1-4)GlcNAc(b1-4)GlcNAc
How it was run: as §1

[21] = target: Neu5Gc(a2-3)Gal(b1-4)[Fuc(a1-3)]GlcNAc
How it was run: as §1

[22] = target: Neu5Gc(a2-6)Gal(b1-4)GlcNAc
How it was run: as §1

Neu5Gc(a2-6)GalNAc = target: Neu5Gc(a2-6)GalNAc
How it was run: as §1

[23] = target: Neu5Gc(a2-8)Neu5Ac(a2-3)Gal(b1-4)GlcNAc
How it was run: as §1

[24] = target: Neu5Gc(a2-8)Neu5Gc(a2-3)Gal(b1-4)GlcNAc
How it was run: as §1

[25] = target: Neu5Gc(a2-8)Neu5Gc(a2-3)Gal(b1-4)GlcNAc(b1-3)Gal(b1-4)GlcNAc
How it was run: as §1

[26] = target: Neu5Gc(a2-8)Neu5Gc(a2-6)Gal(b1-4)GlcNAc
How it was run: as §1

[27] = target: Neu5Gc(b2-6)Gal(b1-4)GlcNAc
How it was run: as §1

B1: Lb MiSSP8 (Laccaria bicolor) (protein)
chain: MYFHTLFACATLMLITTAHASPTVINSLDSRKADLNGDVEARHAADWRRDSDWRRDSDWRRDSDWRRDSD
B1 was tested, and the “glycan array binding signal (z-score)” value (Neu5Ac(a2-8)Neu5Ac) was -0.65, the “glycan array binding signal (z-score)” value [1] was -0.336 and the “glycan array binding signal (z-score)” value [2] was 1.89. For the same binder, the “glycan array binding signal (z-score)” value [3] was -0.744, the “glycan array binding signal (z-score)” value [4] was -0.861 and the “glycan array binding signal (z-score)” value [5] was -0.405. The “glycan array binding signal (z-score)” value [6] was -0.295, the “glycan array binding signal (z-score)” value [7] was -0.768 and the “glycan array binding signal (z-score)” value [8] was -0.84. The “glycan array binding signal (z-score)” value [9] was 1.08, the “glycan array binding signal (z-score)” value [10] was -0.82 and the “glycan array binding signal (z-score)” value [11] was -0.778. The “glycan array binding signal (z-score)” value [12] was -0.965, the “glycan array binding signal (z-score)” value [13] was -0.896 and the “glycan array binding signal (z-score)” value (Neu5Ac(b2-6)GalNAc) was -0.923. For the same binder, the “glycan array binding signal (z-score)” value [14] was -0.55, the “glycan array binding signal (z-score)” value [15] was -0.447 and the “glycan array binding signal (z-score)” value [16] was -0.709. For the same binder, the “glycan array binding signal (z-score)” value [17] was -0.571, the “glycan array binding signal (z-score)” value [18] was -0.53 and the “glycan array binding signal (z-score)” value (Neu5Gc(a2-3)Gal(b1-4)Glc) was 1.35. The “glycan array binding signal (z-score)” value [19] was -0.543, the “glycan array binding signal (z-score)” value [20] was 0.285 and the “glycan array binding signal (z-score)” value [21] was 1.81. For the same binder, the “glycan array binding signal (z-score)” value [22] was 0.761, the “glycan array binding signal (z-score)” value (Neu5Gc(a2-6)GalNAc) was 0.085 and the “glycan array binding signal (z-score)” value [23] was -0.958. For the same binder, the “glycan array binding signal (z-score)” value [24] was -0.861, the “glycan array binding signal (z-score)” value [25] was -0.965 and the “glycan array binding signal (z-score)” value [26] was -0.896. For the same binder, the “glycan array binding signal (z-score)” value [27] was -0.157.
